At least one compound was matched to its structure with a doubt left.
Legend:
Format in all cases: cell-based, human
MCF-7 cells [1] = test: Intracellular lactate in MCF-7 cells (lactate colorimetric kit); conditions: 24 hours
Experimental: (§1) Intracellular lactate (a and d) and histone Kla levels (b and c) were measured from MCF-7 cells cultured in different glucose concentrations or different 2-DG concentrations in the presence of 25 mM glucose for 24 hours. Lactate was measured by a lactate colorimetric kit; n=3 biological replicates; statistical significance was determined using one-way ANOVA followed by Sidak's multiple comparisons test. Immunoblots was carried out using acid-extracted histone samples. The pan anti-Kla and anti-Kac immunoblots indicate molecular weights between 10 kD and 15 kD. e, Regulation of glycolysis and lactate production by diverse metabolic modulators. f, Intracellular lactate levels were measured in MCF-7 cells treated with indicated glycolysis modulators for 24 hours. N=3 biological replicates; statistical significance was determined using one-way ANOVA followed by Dunnett's multiple comparisons test. g-i, Immunoblots of acid extracted histones (Rotenone and DCA) or whole cell lysates (Oxamate) from MCF-7 cells in response to different glycolysis modulators. j, Intracellular lactate levels were measured in MCF-7 cells in response to hypoxia. […]

MCF-7 cells [2] = test: Histone Kla levels in MCF-7 cells by immunoblot (pan anti-Kla)
Experimental: as §1

MCF-7 cells [3] = test: Hypoxia-induced lactate production and histone Kla; conditions: hypoxia (1% oxygen); cell line not given
Experimental: as §1

NC(=O)C(=O)O [oxamate] was tested, and the “intracellular lactate levels / lactate production” value (MCF-7 cells [1]) was “decreased”, the “histone Kla levels” value (MCF-7 cells [2]) was “lowered” and the “induction of histone Kla by hypoxia” value (MCF-7 cells [3]) was “attenuated”. For the same molecule, the “induction of lactate production by hypoxia” value (MCF-7 cells [3]) was “attenuated”.
